From PMC7736783 (Nucleic Acids Research, 2020)
No constants are given. Whether binding was seen depends on the method and setting.

Protein sequences, listed by entry. Tags and fused reporters are not part of them. Lines headed by an entry give the natural chain unless they say otherwise; changes in a name come on top. Chains listed by the source or under a name are the forms on record and can include a tag or linker. Residues count along the entry.
MTA1-Δ12 (MTA1 162–354 with part of ELM2 helix 2 deleted) (Q13330, form named): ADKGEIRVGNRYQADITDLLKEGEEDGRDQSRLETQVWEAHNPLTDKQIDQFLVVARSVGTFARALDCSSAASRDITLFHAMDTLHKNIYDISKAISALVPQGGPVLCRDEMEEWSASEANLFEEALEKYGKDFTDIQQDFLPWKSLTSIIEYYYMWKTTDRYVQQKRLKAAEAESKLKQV
UniProt Q9UBB5: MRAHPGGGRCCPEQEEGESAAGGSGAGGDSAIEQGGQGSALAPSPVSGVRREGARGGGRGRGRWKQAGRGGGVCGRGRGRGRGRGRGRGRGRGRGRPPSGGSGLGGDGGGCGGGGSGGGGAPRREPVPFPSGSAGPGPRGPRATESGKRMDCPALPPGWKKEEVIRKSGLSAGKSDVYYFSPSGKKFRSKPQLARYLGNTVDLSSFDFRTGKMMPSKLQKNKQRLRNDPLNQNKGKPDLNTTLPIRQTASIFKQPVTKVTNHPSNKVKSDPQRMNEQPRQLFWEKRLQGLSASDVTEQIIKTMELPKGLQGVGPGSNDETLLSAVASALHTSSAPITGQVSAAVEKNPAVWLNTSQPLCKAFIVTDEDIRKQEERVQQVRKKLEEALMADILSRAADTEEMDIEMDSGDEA
Strep-MBD2 (residues 114–411): residues 114-411 of Q9UBB5

Key:
[1] = molecular target: MTA1-Δ12 (MTA1 162–354 with part of ELM2 helix 2 deleted) (UniProt Q13330); test: condition: only the monomeric form of the MTA1-Δ12:HDAC1 complex (second Superose 6 peak); SEC; FLAG-purified, TEV-eluted co-expressed complex run on a Superose 6 column; fractions on SDS-PAGE; both purified
[2] = molecular target: Strep-MBD2 (residues 114–411) (UniProt Q9UBB5); test: pull-down; complex co-expressed with Strep-MBD2 and untagged MBD2, purified on FLAG resin, TEV-eluted, gel filtrated (Superose 6), then applied to Strep-Tactin XT Superflow resin, washed five times with buffer C (25 mM Tris-HCl pH 7.5, 75 mM potassium acetate, 0.5 mM TCEP), resin loaded on SDS-PAGE; both purified

“MBD2 (residues 145–411) (from UniProt Q9UBB5 145-411) (domain or fragment)” was tested, and the binding [1] was “no binding” and the binding [2] was “no binding”.
